Source: PubChem BioAssay AID2685 (National Center for Advancing Translational Sciences (NCATS), 2010)
This is one part of the list. Shown are side measurements of this screen, not its main read-out; they come without a call. The list favours compounds with an active or inconclusive main result. Words in brackets tell the shape of the fitted curve; partial curves, single points and poor fits give uncertain potencies.

Experiment: qHTS Assay for Lipid Storage Modulators in Drosophila S3 Cells;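 for cell number change: cells counted by Cell Tracker Red CMTPX staining in the red channel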
Settings: BODIPY lipid droplet fluorescence, 18-24 h; for cell number change: measured here: cell count max response, cells fed with added oleic acid
How it was run: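 Drosophila S3 cells loaded with oleic acid (400 uM, as added) and compounds at several concentrations; lipid droplets imaged by 488-nm laser-scanning cytometry, 500–530 nm intensity and object ratio to cell channel. Percent activity normalized to 20 uM Triacsin C.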

[1] = measured here: lipid fluorescence (Fed channel) AC50, cells fed with added oleic acid
[2] = measured here: cell number channel AC50, cells fed with added oleic acid

SMILES | cell number change | AC50 [1] | AC50 [2]
Cc1cccc(N(C(=O)Cn2nnc(-c3ccc(C)o3)n2)C(C(=O)NC2CCCC2)c2ccncc2)c1 (centres undefined) | 21.1% | 5.62 µM [rising, single point] | 
CCC(=O)Nc1ccc(OC)cc1OC | -41.4% | 29.1 µM [falling, single point] | 29.1 µM [falling, single point]
COCCOC(=O)c1c(NC(=O)CSc2cccc[n+]2[O-])sc(C(N)=O)c1C |  | 29.1 µM [rising, single point] | 
OCCN1CCN(CCCN2c3ccccc3Sc3ccc(C(F)(F)F)cc32)CC1 | -36.4% | 23.1 µM [falling, single point] | 0.411 µM [falling, full curve, poor fit]
Cc1cc(NCc2ccccn2)n2ncc(-c3ccccc3)c2n1 | -6.14% | 1.64 µM [rising, partial curve, poor fit] | 
O=C1c2ccccc2C2NC(=O)C3(CCCCC3)N12 (centres undefined) | 32.2% |  | 16.4 µM [rising, partial curve, poor fit]
CN(C)S(=O)(=O)N1CCC(Oc2ccc(C(=O)N3C[C@H]4CC[C@H]3C4)cc2)CC1 | -29.7% |  | 
O=C(NCc1cccnc1)c1cn(-c2ccccc2)nc1-c1cccs1 | 10.5% | 1.16 µM [rising, full curve] | 
Cn1c(=O)c2c(nc(Br)n2CC(=O)C23CC4CC(CC(C4)C2)C3)n(C)c1=O | 0.651% | 0.13 µM [rising, full curve, poor fit] | 
Brc1ccc(C2=NC(Cc3ccccc3)CO2)cc1 (centres undefined) | 8.21% | 10.3 µM [rising, single point] | 
COc1ccc(CNC(=O)C2CCN(S(=O)(=O)c3ccc4c(c3)CC(C)N4C(C)=O)CC2)cc1 (centres undefined) | 2.99% | 29.1 µM [rising, single point] | 
CCN(CC)S(=O)(=O)c1cc(NS(=O)(=O)c2cc(Cl)ccc2Cl)ccc1C | 21.6% | 0.116 µM [rising, full curve, poor fit] | 6.51 µM [rising, single point]
COc1ccc2[nH]c(=O)c(CN(Cc3cccs3)S(=O)(=O)c3c(C)ccc4nsnc34)cc2c1 | 57.1% |  | 3.66 µM [rising, full curve]
CCC(Sc1nc(=O)cc(N)n1CCc1ccccc1)C(=O)Nc1cc(C)on1 (centres undefined) |  | 4.11 µM [rising, single point] | 
O=C(CCS(=O)(=O)c1cccs1)NC1CCCCCC1 | 21.7% | 14.6 µM [rising, single point] | 
COc1ccc(C)cc1NC(=O)c1ccc2c(=O)n3c(nc2c1)CCCCC3 | -0.99% | 1.3 µM [falling, full curve] | 
O=C(Cc1ccccc1[N+](=O)[O-])NC1CC1 | -43.4% | 0.13 µM [falling, full curve, poor fit] | 
CC1CCC(NC(=O)CCS(=O)(=O)c2ccc3c(c2)CC(C)N3C(=O)C2CC2)CC1 (centres undefined) | -18.3% | 29.1 µM [rising, single point] | 
Cc1cc(C)nc(NC(=S)Nc2ccccc2)n1 | -34.3% | 10 µM [falling, partial curve] | 
O=C(O)c1cccnc1SCCc1ccccc1 | 5.46% | 29.1 µM [falling, single point] | 
Cc1cccc(NC(=O)c2cccnc2Oc2ccccc2)c1C(=O)O | 5.19% | 13 µM [rising, single point] | 

SMILES | cell number change | AC50 [1] | AC50 [2]
COc1ccccc1CCNC(=O)c1ccc(C)o1 | 16.4% | 1.3 µM [rising, partial curve, poor fit] | 
c1ccc(CC2=NCCN2)cc1 | -5.94% | 20.6 µM [falling, partial curve] | 0.00517 µM [falling, full curve, poor fit]
NCCCCC(=O)O | -24% | 23.1 µM [falling, single point] | 
CS(=O)(=O)C1=C(O)C(=O)N(c2ccccc2)C1c1ccccc1 (centres undefined) | -21% | 1.46 µM [falling, full curve] | 0.092 µM [falling, full curve]
CC(=O)Nc1nc(-c2ccc3c(c2)CC(C)N3C(=O)C2CC2)c(C)s1 (centres undefined) | 6.58% | 35.5 µM [falling, single point] | 
COc1ccc(NC2CS(=O)(=O)CC2OC(=O)c2ccc(F)cc2)cc1 (centres undefined) | 2.61% | 0.00517 µM [falling, full curve, poor fit] | 
O=C(Nc1ccc(C(=O)NC2CCCCC2)cc1)c1cccnc1 | -4.49% |  | 
Nc1nc(SCc2ccccc2)c2[nH]cnc2n1 | 29.6% | 29.1 µM [rising, partial curve, poor fit] | 
Cc1ccc(C(=O)Nc2ccc(N3CCOCC3)cc2N2CCOCC2)cc1 | -48% | 11.6 µM [falling, single point] | 11.6 µM [falling, partial curve, poor fit]
Cc1ccccc1C(=O)N1CCCC(CCC(=O)N2CCN(c3ccccn3)CC2)C1 (centres undefined) | -18% | 0.00461 µM [falling, full curve, poor fit] | 
Cc1cccc(OCC(=O)NCCNC(=O)c2cnccn2)c1 | 14.5% | 35.5 µM [rising, single point] | 
Cc1cc(NC(=O)CCCN2C(=O)c3cccnc3C2=O)ccc1Br | -16% | 20.6 µM [falling, partial curve] | 
CCOc1cc(C(=S)N2CCCC2)ccc1O | 39.5% | 29.1 µM [rising, single point] | 29.1 µM [rising, single point]
COc1ccc(C2CC2C(C)=O)cc1 (centres undefined) | -33.4% |  | 0.461 µM [falling, full curve, poor fit]
Cc1c(Br)cnn1C(C)C(=O)N1CCN(c2ccccc2F)CC1 (centres undefined) | -49% | 3.26 µM [rising, single point] | 29.1 µM [falling, single point]
CCOc1ccc2ncc(S(=O)(=O)c3ccccc3)c(N3CCN(c4ccc(OC)cc4)CC3)c2c1 | 0.0784% |  | 
COc1cc(/C=N/NC(=O)c2ccc(CSc3nncn3C)cc2)ccc1OCC(=O)N1CC(C)OC(C)C1 (centres undefined) | 8.42% | 0.116 µM [falling, full curve] | 
COc1cc(NS(=O)(=O)c2ccc(NC(=O)c3ccc(F)cc3)cc2)ncn1 | -17.9% | 0.116 µM [rising, full curve, poor fit] | 
CCOc1ccccc1C(=O)OC(C)C(=O)Nc1ccc(S(=O)(=O)N2CCCC2)cc1 (centres undefined) | 6.83% | 16.4 µM [falling, partial curve, poor fit] | 
CS(=O)(=O)Nc1ccc(C(=O)NCCSC2CCCCC2)cc1 | 19.3% | 4.61 µM [rising, single point] | 
O=C(Cc1ccc2c(c1)OCCO2)N1CCN(c2ccccc2)CC1 | -9.28% |  | 0.00461 µM [falling, full curve, poor fit]

By substructure: those above with a furan ring, fused or not
SMILES | cell number change | AC50 [1] | AC50 [2]
Cc1cccc(N(C(=O)Cn2nnc(-c3ccc(C)o3)n2)C(C(=O)NC2CCCC2)c2ccncc2)c1 (centres undefined) | 21.1% | 5.62 µM [rising, single point] | 
COc1ccccc1CCNC(=O)c1ccc(C)o1 | 16.4% | 1.3 µM [rising, partial curve, poor fit] | 

Remaining list, next part:

SMILES | cell number change | AC50 [1] | AC50 [2]
CSc1nc(-c2ccco2)nn1C(=O)CCc1ccccc1 | -4.21% |  | 
Cc1cccc(Nc2nc(-c3cccs3)cs2)n1 | -26% |  | 
CCc1ccc(CN(C)C(=O)CCc2nnc(CCc3cccc(OC)c3)o2)nc1 | -8.83% |  | 
Cc1cc(S(=O)(=O)ON2C(=O)c3ccccc3C2=O)ccc1F | -6.57% |  | 
COc1ccccc1OCc1nnc(SCCN2CCOCC2)o1 | 33.5% | 3.26 µM [rising, single point] | 4.11 µM [rising, full curve, poor fit]
CC(C)Oc1ccc(C(=O)NCc2cccs2)cc1 | 38.3% |  | 6.51 µM [rising, partial curve]
Cc1cc2oc(=O)cc(CN3CCN(C/C=C/c4ccccc4)CC3)c2cc1O | -11.1% | 32.6 µM [falling, partial curve, poor fit] | 
CCN(CC(=O)NC1CC1)S(=O)(=O)c1ccc(OC)cc1 | -17.6% | 29.1 µM [rising, single point] | 
Nc1cc(-c2ccccc2)nn1S(=O)(=O)c1ccc(F)cc1 | -31.3% | 32.6 µM [falling, single point] | 0.00651 µM [falling, full curve, poor fit]
COc1cccc2c1C(=O)C[C@]1(CCCC[C@@H]1C)O2 | 0.132% |  | 
CCOC(=O)c1sc(NCc2ccco2)c(-c2nc3ccccc3s2)c1N | -17.3% | 0.731 µM [rising, single point] | 
O=C1C(=O)N(CCCn2ccnc2)C(c2ccc(Br)cc2)/C1=C(\O)c1ccc2c(c1)OCCO2 (centres undefined) | 2.7% |  | 
O=C(Cn1c(=O)c2c(ncn2C2CCCC2)n(Cc2ccccc2)c1=O)N1CCc2ccccc21 | -14.1% | 0.092 µM [rising, full curve, poor fit] | 
O=C(COc1cc2oc(=O)c3c(c2cc1Cl)CCC3)NCCCN1CCOCC1 | 3.12% | 0.651 µM [rising, full curve] | 
COC(=O)c1c(NC(=O)C(=O)N2CCOCC2)sc2c1CCCC2 | -0.472% | 0.58 µM [rising, single point] | 
COc1cc(CNCc2cccnc2)ccc1OCC(=O)NC(C)(C)C | 8.26% | 10.3 µM [rising, single point] | 
COc1ccc2nc(N3C(=O)/C(=C/c4ccccc4)NC3=S)sc2c1 |  |  | 23.1 µM [rising, partial curve]
O=C(CSc1nncs1)Nc1cccc2ccccc12 |  | 1.46 µM [rising, partial curve, poor fit] | 0.461 µM [rising, partial curve]
Oc1c(Br)cc(Cl)cc1C=Nc1ccc(N2CCOCC2)cc1 |  | 2.31 µM [rising, partial curve, poor fit] | 
